Laboratory results taken from PMC6811503.
These are yes or no findings as the source states them, for the method shown. Binding seen in cells or lysates may run through a third protein. A yes stands for co-enrichment or nearness to the bait. Other partners may have been found. Tags and fused reporters may be left off the sequences shown.

T1: Pbp1-4×FLAG (C. neoformans) (UniProt J9VND4)
T1 sequence: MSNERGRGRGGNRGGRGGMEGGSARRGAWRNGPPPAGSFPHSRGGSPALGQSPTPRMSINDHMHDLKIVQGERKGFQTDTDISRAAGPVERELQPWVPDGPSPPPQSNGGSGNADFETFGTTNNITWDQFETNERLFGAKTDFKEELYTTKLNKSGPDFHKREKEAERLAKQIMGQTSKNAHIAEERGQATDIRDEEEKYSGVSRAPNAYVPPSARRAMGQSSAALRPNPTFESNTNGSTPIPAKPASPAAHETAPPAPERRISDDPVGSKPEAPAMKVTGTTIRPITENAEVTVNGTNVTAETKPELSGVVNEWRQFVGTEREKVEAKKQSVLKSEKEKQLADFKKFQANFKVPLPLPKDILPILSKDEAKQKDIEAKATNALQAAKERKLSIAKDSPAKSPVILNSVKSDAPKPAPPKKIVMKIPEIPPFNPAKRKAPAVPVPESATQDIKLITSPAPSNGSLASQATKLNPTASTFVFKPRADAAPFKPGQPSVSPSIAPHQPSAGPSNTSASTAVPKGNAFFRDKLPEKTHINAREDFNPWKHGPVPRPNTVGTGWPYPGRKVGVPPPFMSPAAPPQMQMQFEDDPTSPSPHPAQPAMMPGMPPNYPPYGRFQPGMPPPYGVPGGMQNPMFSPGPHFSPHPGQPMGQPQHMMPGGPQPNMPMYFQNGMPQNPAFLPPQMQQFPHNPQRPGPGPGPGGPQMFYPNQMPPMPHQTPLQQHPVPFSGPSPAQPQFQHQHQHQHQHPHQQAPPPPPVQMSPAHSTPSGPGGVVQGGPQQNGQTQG

B1: CDC53 (protein, UniProt J9W365 1-775)
chain: MSASASGSSWTEPTKAQAPPKDADLKQAWAFLSVGVDHIMTRLSFGMSYSYYILLYTAIYNYCTQPGKTGLTSFSPQRGGASLQGADLHRSLHNWLSVHCKSMREEAEKLPDQELLKYYARQWDRYTRGALYVNKLFNYLNKHWVKREKDEGRKDVYQVYTLALVSWKNNFFDHFTDNKGTSRLTQALLRQIQQQRNGEEVDSSLLKKVIDSYVSLGLDEADAQRQNLDTYRKHFQAQFLEATDTYYRAESSAFVGSNSVSDYMKKAEARLQEEADRVNLYLHDNTRNDLKTRCEKVLIEEHQAIMWDEFQTLLDSDRVDDLARMYGLLSRVLNGLDPLREKFGQHVRRTGRAAVEKVLPAPGAVNEAGKAESLDPKAYVEALLEVHGKYTSMVEGPFRGEMGFNRALDQACGDFCNSNAACTVSTKSPELLASYCDLLLRKSNKDSDAESLEASLSKAMIIFNFIDDKDVFHKFYQKKLAQRLVGSLSASDDAESSMITKLKELSGFEYTNKLSKMFTDVNLSKDLMERFNEKEREKGVASDIDFQPLVLGSNSWPLHPQQTDFAIPREIQALYDRFNAFHGEVHQGRTLNWLWHISKNELRTTYLNQKYILMTSAYQMAILTQFNVSDTLSYKDIEAGTKLSPTVLKPQLGLLVKLKILLNTDEEYSLNTGFKSKKIRVNLNQTIKSEARAEQKEVIAAVDEDRKFVYQATIVRLMKGRKTMQHQALIQEVTAQISSKFTPKIPEIKKAIEYLIDKEYLERAPDSNNTYNYLA
B2: HEF3 (protein, UniProt J9VQZ9 1-1055)
chain: MAPAATAAASSGKGSFDLATLFVADKAARDEAGLALADAVKKSGVEFFTQIGFNDAIVKALNDKKSQSAREGACEVISTLCENGAAQLLEPHVISSAENTPFPALLEAFADKVAAVKTAAIAAVKAIVQSMNPWASFVLLPALLNLIRTSGKWQIKAGSLEILQQLITSAPFQMGEAMPDLVPVLAEAVWDTKSDVKKAAKATLEKAVSLVENKDIEKFVPALVKSLLNPIEEVPKTISLLSATTFVSEVTAPTISLIAPLLIRGLDERPTATKRKVCVIADNMSKLVDSEYTVRPFLPQLLPRLIKTSETIADPEARSVANRAIVTLRRIGKVPAESDGSDLPPLPVAEGPHLATNFVALVKKHGGVSVEQTNPGLAYAGVLAASLVNHHNFDQKTWESTLPPYLKLALPSYDSLPAVRELLQKKADEAETDDAKFPDEEEGEDLCNIEQFNLAYGAKILLHHANMRLKRGHRYGLCGRNGSGKSTLMNAIINNQVEGFPPPTEVRTFYVQHDIDGSEAEISILDWVLGDKRLLATPDEIKSTLESVGFDEVKQKNSIGSLSGGWKMKLALARAILFKADILLLDEPTNHLDVLNVDWLINYLTSLTRCTSIIVSHDSDFLNRTVTDVLHLNNFKLKRYPGNLEDFVQHVPEAKSYYQLDVAEDYQFKLPNPPLLDGVKTKEKSLLKMRNVSFQYPGSSIQQLYDISLQVSLSSRVAILGPNGSGKSTLVKLLTGETEPNLGGQVWKHPNLVIGYVAQHAFHHIDNHLDSTPLEYMLWRYQTGEDLEEMHKANRVMTEAEIAKMKEGATVIKDGVKRIIDELVARKKLKQSYEYEVSFKGMSSAENIWISRDELVARGFEKKVMELDTREAQRLGLMRPLVRREIEKHFEDFGLDAEFVSHNSMRGLSGGQKVKVVLGAATWRRPHIICLDEPTNYLDRESLAALIAALKNFEGGVLIITHNREFSESICTEVWAMREGYLEASGHNWVEGQGSGERIDKKAADDDEVEYDALGNPIVKAKKEKKLSAADKRKAKKDRMARRKRGEEVFSDEEL
B3: Pob3 (protein, UniProt J9VXA2 1-588)
chain: MSTVTFENIFHGDSADLGKLRFNPVGFGWKAYQSEDNNPTTYNGSDIRHATWFRVARHFQLRLGMRNSEKPRISFDGFKRDDLDKIKRTLQEYFNITLETRDTSLKGWNWGEAQVKGSDLVFQVQGKTAFDVPLSQVANSNIAGKYEVALEFNPPSNYKFDPKDLNKRPPDEMVEMRFYIPGKSTKKAGSDAGSGGEETELDEEGNEVSAADAFHSLIKEKADIGAVVGDSIVVFEDCLILTPRGRFSIEVYADSIRLVGKSTDHRVPFTSIHRIFLLPKLDDLHVQLVLGLDPPIRQGATRYPFLVAQWPKDEVVNAELNLTDEELAQYPDLEKTYEATTFQVVSRVLKALTGKKVTPPGSLRNAQGLNGIRANVKAVQGELYFLEKGLIFISKQPILIDFSKTDSISFSRVGGGVASARTFDMRVVSKTGGADHVFSAINKQEVGPISSFLQSKNIRLKNEMEEAIVDIDEPFSDDDEEMESASEDERPSRAKNDKSKTKPVKKLADDDEDESEDEDFEDESSDGGSPSESDSDDDSGMASDASDPMMEELRKKTQAKRTKAKETSGSGSEEEKPKKKKVKKDDDE
B4: Yta12 (protein, UniProt J9VGL8 1-817)
chain: MSLRALSLRRLPRYSALARPFFSRTYATPGSPKPSRNPPPPPGLESVFGGSAGKQGTTVAPKPPGVGPPSGPSLPKKPDVGLPGLEGEENRPEDQKEQDEPRRPKLSEQLSGKAGKRVTTGGGGGSGGSGGGAGGPGGQPGGFGGMTPNQLLLLAVSTYALWSMTAPDDVRTKEITWQEFRNSLLARGLVSSLEVVNRNKVRVHLHNPLSGQPQQTNPTGSGSLPSPSHGPAPYQFTIGSLEAFENLLLASQDELGIPPAERVPVSYREEISTFQTIMHFAPTLLIAGLLLWMARRGGSAMGGGGPGGGIFGVGKSRAKMFNKDEQVSVRFKDVAGMDEAKEEIMEFVKFLKEPLKYEKLGAKIPRGAILSGPPGTGKTLLAKATAGEAGVPFLSVSGSEFVEMFVGVGPSRVRDLFANAKKNAPCIIFVDEIDAIGKSRGKGGNFGGNDERESTLNQLLVEMDGFGTNEHVVVLAGTNRPDVLDSALMRPGRFDRHIAIDRPDIGGRRQIFAVHLKPITLAPDLTIERIAEKLALLTPGFSGADIANVCNEAALRAARHGGEVVTEADFDGAIERVIAGLERKSRVLGKDEKKTVAYHEAGHAVCGWFLEHADPLLKVSIIPRGVGALGYAQYLPKERFLFSTEQLLDRMSMTLGGRVAEEIFFGRITTGAQDDLQKITKMAFEVCANYGMDPAIGPISYGGRDQQGEGFQKPFSEATAEALDKAVKKMVIEAHDRTTRLLTEHKEDVEKVAKLLLVKEVITREDMRLTLGPRPFANKDEMDDLIERELDQKKQEKEEQEADGPVPQLAFKPIKVD
B5: Pch2 (protein, UniProt J9VND0 1-576)
chain: MSNIVEFSAPSSRSSSSKARNFVSPSTRLSKTLCLEKPFENINGNHEVESHIYKDEDVMEEDIMGEESMLVDTDQEEDSDADEEKEVIHVEVRQKSFSHLREQPIMQIVTQFIQEDLARVELGCELSGWNDIKVLRDHVERIWVEEGGVASVQVPEVDIQVHVYKASLNNEVEDFSADLDDDDSEEKVSAASVRTLPSAELDGIWDTLVYSDDIKARLLNYIYSTILFSESDIDFNVIAWNRVILLHGPPGTGKTSLCRALAQKMSIRLSQKYRHGKIIEINSHSLFSKWFSESGKLVQKLFQTVTEMVEDESGFVVVMIDEVESLTAARASAMKGNDPSDSLRVVNALLTQLDKLRTRKNVLVVTTSNLVDAIDEAFISRVDLLESVPLPPPRAIYSILSGCLKECITKKLIKRCRILDWKAAEEAQRERKFAGEVSIAEKGKEAREVRERGVAASLADLAVRCHAIELSGRTLRKLPVIAHARYLSSSSSSTSSMGEYRSLKVERWIEAMHKVVDVEQEKKHGLARGGSTLDAGDGETLTRRDGINGHAEAHGYGHAYMEKNEVGMMVGTKVKH
B6: CNAG_03494 (protein, UniProt J9VVS5 1-550)
chain: MSDMEINVKTLKVAELKEELSKRGLDTKGLKKDLAERLQGALDAEANPPSSEAAPAQAEEAPGSRPSTPPAPDVAAEPSPSRPQTPPLAQDSSAPLAPSTPSLPASDKGVGSVMVDGYPEALEKQAAEVKDDADMVETQPKALDEEVAKEVAKEEGKAVLPLTPSPPPRSLSPLPVEEEKKEEQREEEAERKFEAQSETKSEPSAPVEKDAKVQEDQQIAPPSPQSPADKKRPLPPSPAPPAKKSRTTDEVPIAFSHAIHPPTSTLFISNLKRPFMHSALHEYLFSTAPESSPPTLPPARTPFASDEYPGLWLSGVKDHAFAVYPSVEDALVAAQRIDNVQWPEDTGSALTIEFIADDKLLALVQEEEQAWTNGRQKLNLKVIKRDDGEFEFTHEGVGGLGRAPMRGGGPLRGVGMRGGVQGGYPPHHPGGGFGRPQGPPGQFGAVSAGGPRAPPRPVPLTGVNAIGVAGGRGGGAIGIRGRGGFGGGPGGHGRIDGPPLHGHGHGHGHAMQQRDPINEELKMRPTRFRPRLFWKKGPGAVEGLARGDGR
B7: Utp5 (protein, UniProt J9VI77 1-714)
chain: MAPRQPVAGPSKPKHSQQPAIQSPPAPAAVSAFNSTRTLFALASPVLGQADKVQVWDVAGDRVISEWEVVGASKASSVCFTTVPSDAASTKKKRRKSGSGRGAEEEVVLVTTSKSQLLVLSTKQTEPLRTLDLPASVTAAWSEERASILATASSLLVLSADASSISHTFTLPSSLSSPTAITILPTSTAESLHVLVASSLVVTLHLSLASQEVTFVSSPLPASTSSISSLLPLPLTEQGASFLVVSEDDRTISQYTLTSPQSPARLSYRYASPTLSSAHSITADPDLLAVLHESGEISLFRLPSELDLSRPQSDAKPSTVKIVEGKEERTARLCRVAFAPVDDGASGALLCGRLTGGGRVKWSRAIYELPEGGLRPVTVVKVEAQELVGASSVSETVPVQRYVAPNTVNEAAPEDVDEAPVSQLPSDVNMAELSLGERMLAPDSQEADTGSKPAASSAGVTLDGPVNAASLTRVLVQALHTSDPALLTLCLSHRNPVLIRNTIRKMPPQLALPLLKACVERLGQGKGANKRGGGRGAAQNEQQGRGTVEWVKGVLVERGSILMTIPSLPVHLASLSQLLQNRLELNQPLQTLSGRLDLALAQITMRRIAAEQALENAKNGGQKGGEGEIYVEGESEDEDEIIEVGEDGGEIEDIDMGGLSESDESEEEEEEEEDEDEDEESDDDPLDSGSDNDLLDLQAEESGSDDEEESEDED

The binders below were run against T1, Pbp1-4×FLAG (C. neoformans) (assay: affinity purification with mass spectrometry; anti-FLAG M2 affinity gel on lysate of HP181 (Pbp1-4xFLAG), untagged H99 as control; cells grown at 30°C then 1 h at 37°C; lysis buffer 50 mM Tris-HCl pH 7.5, 150 NaCl, 0.5 mM EDTA, 0.5% Triton X-100; 4°C; one Coomassie-stained band seen only with HP181 was excised, digested with trypsin and analysed by LC-MS/MS).
For B1, the binding was “binds”.
In the case of B2, the binding is reported as “binds”.
In the case of B3, the binding is reported as “binds”.
With B4 the binding was “binds”.
For B5, the binding was “binds”.
With B6 the binding was “binds”.
With B7 the binding was “binds”.
